Measurements as given in PubChem BioAssay AID504834 (National Center for Advancing Translational Sciences (NCATS), 2011).
Values joined by “and” are separate entries in the source; they are usually repeats but may differ in a detail not shown here. Identical values can stand only once. Screen size: about 320,000 compounds; about 22,000 (6.9%) were called active. Inconclusive results, whose numbers are uncertain, are shown with a selection of clear calls. Calls follow the shape of the dose curve; as a rule, active = well fitted inhibition curve with a large enough effect; inconclusive = small, poorly fitted or top-dose-only effect, or another doubt; inactive = no such curve, though single readings can be large or run the other way. Where the call is inconclusive, the potency comes from a doubtful curve fit.

Assay: Primary qHTS for delayed death inhibitors of the malarial parasite plastid, 96 hour incubation
Details: P. falciparum luciferase reporter growth; series mostly up to 28.7 µM
Method in brief: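 Compounds incubated with erythrocytes infected by luciferase-expressing P. falciparum (2% hematocrit, 0.05% parasitemia final) for 96 hours, 37 C in 5% CO2. Growth inhibition scored as decreased luciferase luminescence.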
Potency is read from the fitted curve at half-maximal effect.

SMILES	Potency
O=[N+]([O-])c1ccc(Oc2ccc(S(=O)(=O)Nc3ccccc3)cc2)cc1	inconclusive: 0.657 µM [inhibitor, partial curve, poor fit]
CCc1ccc(Nc2n[n+](C)c(-c3ccncc3)s2)cc1	inconclusive: 0.586 µM [inhibitor, full curve, poor fit]
N#C/C(=C\c1ccc(O)c(Br)c1)C(=O)N1CCCCC1	inconclusive: 5.86 µM [inhibitor, partial curve, poor fit]
COc1cc2c(cc1OC)CN(C(=O)CSc1nc(C)cc(C)c1C#N)CC2	active: 6.57 µM
COCCCN(C(=O)CC1OC(=O)c2ccccc21)c1c(N)n(Cc2ccccc2)c(=O)[nH]c1=O (configuration not stated)	inconclusive: 11.7 µM [inhibitor, single point]
CCOP(=O)(c1ccc(N(C)C)cc1)C(O)c1ccccc1F (configuration not stated)	inactive
CC1(C)CC(N2CCCC2)=CC(=[N+]2CCCCC2)C1	inconclusive: 0.0026 µM [inhibitor, full curve, poor fit]
O=C(COc1ccc(F)cc1)Nc1nnc(C2CCCCC2)s1	inactive
COc1ccc(C)cc1NC(=O)c1ccc(NS(=O)(=O)c2cccs2)cc1	inconclusive: 6.57 µM [inhibitor, partial curve, poor fit]
CC1Cc2ccccc2N1C(=S)NC(=O)C1(C)CC1(Cl)Cl (configuration not stated)	inactive
CCCCCC(N)=O	inactive
C/C(=N\NC(=O)c1cccc(N/N=C(\C)c2cc(O)ccc2O)c1)c1cc(O)ccc1O	inconclusive: 1.65 µM [inhibitor, full curve]
OCCCc1nc2ccccc2n1CCc1ccccc1	inconclusive: 18.5 µM [inhibitor, single point]
CCCCCC(=O)Nc1ccc2oc(-c3cncc(Br)c3)nc2c1	inconclusive: 9.28 µM [inhibitor, partial curve]
Cc1cc2cc(CN3C(=O)c4ccccc4C3=O)ccc2[nH]1	inconclusive: 16.5 µM [inhibitor, partial curve, poor fit]
CCc1noc(C)c1C(=O)N(C)CC(=O)Nc1ccc(Cl)c(Cl)c1	inconclusive: 9.28 µM [inhibitor, partial curve, poor fit]
Cc1ccc(C(=O)O)cc1NC(=O)c1ccc2c(c1)C(=O)N(c1ccc([N+](=O)[O-])cc1)C2=O	inconclusive: 13.1 µM [inhibitor, single point]
C[C@H]1C[C@H]2[C@@H]3CCC4=CC(=O)C=C[C@]4(C)[C@@]3(Cl)[C@@H](O)C[C@]2(C)[C@@]1(O)C(=O)CO	inactive and inconclusive: 5.36 µM [inhibitor, partial curve]
CCOC(=O)CC1C(=O)NCCN1S(=O)(=O)c1ccc(Cl)cc1 (configuration not stated)	inconclusive: 0.0828 µM [inhibitor, full curve, poor fit]
CCOC(=O)Cc1ccc(NC(=O)c2cccc([N+](=O)[O-])c2)cc1	inactive
Oc1cc(NCc2ccccc2)cc2cccnc12	active: 2.62 µM
O=C(c1cccc(-c2ccc(O)cc2)c1)N1CCN(c2ccc(F)cc2)CC1	inconclusive: 5.86 µM [inhibitor, single point]
CCn1c(CN2CCN(Cc3ccc(C)cc3)C(CCO)C2)nc2ccccc21 (configuration not stated)	inconclusive: 14.7 µM [inhibitor, single point]

SMILES	Potency
Cc1cc(C)c2[nH]c(=O)c(CN(Cc3cccnc3)C(=S)NCCCN(C)C)cc2c1	inactive
COC(=O)N1CCc2c(sc(NC(=O)C3COc4ccccc4O3)c2C(N)=O)C1 (configuration not stated)	inconclusive: 18.5 µM [inhibitor, single point]
CCOC(=O)c1c(C)[nH]c(C)c1C(=O)CSc1nc2ccccc2n1CCOC	inconclusive: 18.5 µM [inhibitor, single point]
CCOc1ccc(S(=O)(=O)N2CCCC(C(=O)NCc3cccnc3)C2)cc1Cl (configuration not stated)	inconclusive: 0.522 µM [inhibitor, full curve, poor fit]
CN1C(=O)C(=Cc2cn(CC#N)c3ccccc23)C(=O)N(C)C1=O	inconclusive: 2.08 µM [inhibitor, full curve]
FC(F)(F)c1cc(C(F)(F)F)c2ccc(N/N=C/c3ccccc3)nc2n1	active: 0.465 µM
COc1cccc(C(C(=O)NC2CCCCC2)N(C(=O)c2ccccn2)c2cccnc2)c1 (configuration not stated)	active: 1.65 µM
CC(O)[C@H]1CNC(=O)C(=O)N1CCC12CC3CC(CC(C3)C1)C2 (some centres not stated)	inactive
Cc1c(C(=O)Nc2ccc3c(c2)OCCO3)cnn1C	inconclusive: 13.1 µM [inhibitor, partial curve]
O=C(CCc1ccccc1)N1CCCN(C(=O)CCc2ccccc2)CC1	inactive
O=C(NCc1ccc2c(c1)OCO2)c1cc(-c2ccc(Cl)cc2Cl)on1	inconclusive: 1.17 µM [inhibitor, partial curve, poor fit]
COc1ccccc1CN(C)C(=O)CN1C(=O)c2ccccc2C1=O	inconclusive: 9.28 µM [inhibitor, partial curve, poor fit]
CCOc1cc(S(=O)(=O)NCCCN2CCOCC2)ccc1F	inconclusive: 13.1 µM [inhibitor, single point]
FC(F)(F)c1ccc(C2[C@H]3CN(Cc4ccc(-c5ccccc5)cc4)[C@H](c4ccccc4)C34CC2(c2ccccc2)C4)cc1 (some centres not stated)	inactive
O=[N+]([O-])c1ccc2nc(-c3ccccc3[N+](=O)[O-])[nH]c2c1	inconclusive: 11.7 µM [inhibitor, single point]
O=C(Nc1ccc(F)cc1)c1cccc(N2C(=O)c3ccccc3C2=O)c1	inactive
CCc1nnc(NC(=O)C2CC(=O)N(CCc3ccc(F)cc3)C2)s1 (configuration not stated)	inconclusive: 2.08 µM [inhibitor, partial curve, poor fit]
COc1ccc(C2=NN(c3nc(-c4ccc(CNC(C)=O)cc4)cs3)C(c3ccco3)C2)cc1 (configuration not stated)	inconclusive: 1.65 µM [inhibitor, partial curve]
O=C(CCCN1C(=O)/C(=C/c2ccccc2Cl)SC1=S)NCCCN1CCOCC1	inconclusive: 4.15 µM [inhibitor, single point]
O=C(CSc1nnc(Cn2c(=O)sc3ccccc32)n1-c1ccccc1)N1CCCC1	inconclusive: 18.5 µM [inhibitor, single point]
COc1ccc(/C=N/NC(=S)NC2CCS(=O)(=O)C2)cc1 (configuration not stated)	inconclusive: 18.5 µM [inhibitor, single point]
Cc1ccc(NC(=O)c2ccc(-n3cccn3)c([N+](=O)[O-])c2)cc1	inconclusive: 7.38 µM [inhibitor, partial curve]
O=C(Nc1ccc(Cl)cc1C(F)(F)F)c1ccccc1Cl	inconclusive: 13.1 µM [inhibitor, single point]

SMILES	Potency
Cc1cccc(C)c1NC(=S)Nc1ccc(Cl)c(Cl)c1	inactive
O=C1C(=O)N(CCCN2CCOCC2)C(c2ccc(F)cc2)/C1=C(/O)c1ccccc1 (configuration not stated)	inconclusive: 5.22 µM [inhibitor, partial curve]
CCOc1ccc(C(=O)Nc2c(C(=O)N3CCC(N4CCCCC4)CC3)oc3ccccc23)cc1	inconclusive: 18.5 µM [inhibitor, single point]
CC(NC(=O)COC(=O)CNC(=O)C1CCCCC1)c1ccccc1 (configuration not stated)	inactive
Cc1ccc2oc(C(F)(F)C(F)F)cc(=O)c2c1	inactive
COc1ccc(NC(=O)C2CCCO2)cc1OC (configuration not stated)	inactive
O=C(COC(=O)c1ccc(Cl)nc1)Nc1nnc(-c2ccccc2)o1	inconclusive: 3.29 µM [inhibitor, partial curve, poor fit]
COc1ccc(C(=O)Nc2ccnn2C2CCN(Cc3ccc4nonc4c3)CC2)cc1	inactive
COc1ccc(-c2nnc3n2-c2ccccc2SC3)cc1OC	inconclusive: 18.5 µM [inhibitor, single point]
COc1ccc(S(=O)(=O)N(CCC(N)=O)Cc2ccco2)cc1OC	inconclusive: 0.233 µM [inhibitor, partial curve, poor fit]
CC(NC(=O)CN1CCOCC1)c1ccccc1 (configuration not stated)	inconclusive: 1.31 µM [inhibitor, single point]
O=C(N/N=C/c1ccc(O)cc1)c1cccc(N/N=C/c2ccc(O)cc2)c1	inactive
O=C(NCc1ccc(Cl)cc1)C1CCCN1C(=O)Nc1ccc(F)cc1 (configuration not stated)	inactive
COc1ccc(N2CCN(S(=O)(=O)c3ccc4c(c3)CC(C)N4C(=O)C3CC3)CC2)cc1 (configuration not stated)	inconclusive: 8.28 µM [inhibitor, partial curve, poor fit]
CCN(CC)CCCN(Cc1cc2cc3c(cc2[nH]c1=O)OCCO3)C(=O)Nc1ccc(F)cc1	inconclusive: 13.1 µM [inhibitor, partial curve]
O=C(O)c1ccc2c(=O)n3c(nc2c1)/C(=C/c1ccc(OC(F)F)cc1OC(F)F)CC3	inconclusive: 13.1 µM [inhibitor, single point]
O=C(N/N=C/c1ccco1)c1ccc(NC(=O)c2ccccc2Cl)cc1	inconclusive: 7.38 µM [inhibitor, partial curve]
O=C1NC(=S)N/C1=C/c1cccc([N+](=O)[O-])c1O	active: 1.85 µM
O=C(NCc1cccnc1)Nc1ccc(Br)cc1	inconclusive: 11.7 µM [inhibitor, partial curve]
C=CCn1c(SC(C)C#N)nc2sc(CC)cc2c1=O (configuration not stated)	inconclusive: 13.1 µM [inhibitor, single point]
CC(C)(C)OC(=O)N1CCN(c2ccc([N+](=O)[O-])cc2)CC1	inactive
